Laboratory results as given in patent US20090155271A1.
Results are given in words; binding and its absence hold for the method and conditions named. Some entries that bind do so weakly or less than the wild type.

How the values were obtained:
Conditions in all cases: remark: other sources report otherwise
[1] = biological target: human IL-17RA on transfected cells (human), Q96F46; assay: saturation binding on BHK cells, experiment 1
[2] = biological target: human IL-17RA on transfected cells (human), Q96F46; assay: FACS, biotinylated cytokine on transfected BHK cells
[3] = biological target: human IL-17RA on transfected cells (human), Q96F46; assay: FACS, MFI over a range of cytokine concentrations, transfected BHK cells
[4] = biological target: human IL-17RA on transfected cells (human), Q96F46; assay: saturation binding on BHK cells, experiment 3
[5] = biological target: human IL-17RA on transfected cells (human), Q96F46; assay: saturation binding on BHK cells, experiment 2

Measured: binding

B1: human IL-17F, Q96PD4 31-163 (ligand)
chain: RKIPKVGHTFFQKPESCPPVPGGSMKLDIGIINENQRVSMSRNIESRSTSPWNYTVTWDPNRYPSEVVQAQCRNLGCINAQGKEDISMNSVPIQQETLVVRRKHQGCSVSFQLEKVLVTVGCTCVTPVIHHVQ
binds: all assays above
